No constants are given. Whether binding was seen depends on the method and setting. Binding seen in cells or lysates may run through a third protein. Some results given as binding are weak or reduced against the parent protein; the word gives no strength. For part of these data: Sequences can lack the tags named with a protein.

Sequences of proteins named here, by UniProt entry; tags and fusion partners are left off.
UniProt P67775: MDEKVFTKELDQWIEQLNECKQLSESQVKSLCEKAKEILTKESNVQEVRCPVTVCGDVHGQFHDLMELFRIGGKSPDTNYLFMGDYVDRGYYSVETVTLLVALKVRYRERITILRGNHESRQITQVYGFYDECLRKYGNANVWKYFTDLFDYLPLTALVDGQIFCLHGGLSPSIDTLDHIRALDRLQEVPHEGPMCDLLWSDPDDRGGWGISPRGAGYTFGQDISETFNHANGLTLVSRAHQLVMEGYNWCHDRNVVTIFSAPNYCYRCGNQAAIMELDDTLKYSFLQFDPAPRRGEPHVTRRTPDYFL
UniProt P63167: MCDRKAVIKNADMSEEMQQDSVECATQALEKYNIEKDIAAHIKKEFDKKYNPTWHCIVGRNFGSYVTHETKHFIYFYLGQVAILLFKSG
UniProt Q14160: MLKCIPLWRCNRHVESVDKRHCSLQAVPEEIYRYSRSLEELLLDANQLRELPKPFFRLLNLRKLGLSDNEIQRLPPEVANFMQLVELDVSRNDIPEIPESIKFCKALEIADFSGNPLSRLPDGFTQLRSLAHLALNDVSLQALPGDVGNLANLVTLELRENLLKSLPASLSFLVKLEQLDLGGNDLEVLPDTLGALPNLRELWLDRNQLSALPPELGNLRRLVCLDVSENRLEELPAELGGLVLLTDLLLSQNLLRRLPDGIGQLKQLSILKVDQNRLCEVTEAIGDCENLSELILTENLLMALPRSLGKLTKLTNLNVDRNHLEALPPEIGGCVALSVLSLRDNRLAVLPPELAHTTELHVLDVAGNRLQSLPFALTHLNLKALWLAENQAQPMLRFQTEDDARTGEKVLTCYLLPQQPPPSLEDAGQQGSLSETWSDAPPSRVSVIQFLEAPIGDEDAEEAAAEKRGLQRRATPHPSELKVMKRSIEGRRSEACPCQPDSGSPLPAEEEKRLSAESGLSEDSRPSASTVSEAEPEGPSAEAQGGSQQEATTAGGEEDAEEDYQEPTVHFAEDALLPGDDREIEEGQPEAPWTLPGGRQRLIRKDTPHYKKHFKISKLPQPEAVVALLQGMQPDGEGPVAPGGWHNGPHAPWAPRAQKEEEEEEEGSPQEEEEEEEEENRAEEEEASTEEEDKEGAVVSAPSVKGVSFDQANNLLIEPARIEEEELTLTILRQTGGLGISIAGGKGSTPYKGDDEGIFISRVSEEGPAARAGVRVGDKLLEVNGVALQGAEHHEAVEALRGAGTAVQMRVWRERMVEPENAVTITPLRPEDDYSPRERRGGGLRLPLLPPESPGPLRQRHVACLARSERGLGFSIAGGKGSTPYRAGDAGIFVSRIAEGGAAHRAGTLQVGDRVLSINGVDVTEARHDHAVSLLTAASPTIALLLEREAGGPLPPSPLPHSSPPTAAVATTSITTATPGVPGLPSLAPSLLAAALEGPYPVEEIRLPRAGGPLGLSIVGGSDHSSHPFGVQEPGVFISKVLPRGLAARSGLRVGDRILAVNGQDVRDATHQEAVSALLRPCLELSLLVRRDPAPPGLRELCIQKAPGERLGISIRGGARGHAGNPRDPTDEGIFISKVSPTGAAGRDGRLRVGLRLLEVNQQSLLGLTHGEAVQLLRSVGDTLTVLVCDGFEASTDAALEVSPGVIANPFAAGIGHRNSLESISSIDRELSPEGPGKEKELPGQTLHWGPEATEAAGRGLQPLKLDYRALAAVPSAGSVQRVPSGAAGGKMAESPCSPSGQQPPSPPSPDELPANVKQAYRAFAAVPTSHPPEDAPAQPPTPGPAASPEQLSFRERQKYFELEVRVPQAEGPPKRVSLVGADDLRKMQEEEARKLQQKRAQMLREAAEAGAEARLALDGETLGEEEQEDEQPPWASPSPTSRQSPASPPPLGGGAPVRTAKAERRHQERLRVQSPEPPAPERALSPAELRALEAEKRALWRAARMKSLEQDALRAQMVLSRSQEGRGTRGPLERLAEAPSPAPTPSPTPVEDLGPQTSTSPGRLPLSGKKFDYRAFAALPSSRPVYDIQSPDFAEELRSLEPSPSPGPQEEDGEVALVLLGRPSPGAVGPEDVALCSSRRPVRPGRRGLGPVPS

This note sets out measurements from publication PMC4019850.

One assay deals with Flag-PPP2CA (human) (UniProt P67775). As to the kind of experiment: co-IP; HeLa transfected with the Flag-tagged phosphatase (with HA-DLC1 where named), serum and amino acids starved for 1 h or left untreated; immunoprecipitation with anti-Flag, Western blot. For orientation: Immunoblotting shows a protein as a band on a membrane.
For a further assay, the target named is T1, Flag-PTPN21 (human) (UniProt Q16825).
T1 sequence: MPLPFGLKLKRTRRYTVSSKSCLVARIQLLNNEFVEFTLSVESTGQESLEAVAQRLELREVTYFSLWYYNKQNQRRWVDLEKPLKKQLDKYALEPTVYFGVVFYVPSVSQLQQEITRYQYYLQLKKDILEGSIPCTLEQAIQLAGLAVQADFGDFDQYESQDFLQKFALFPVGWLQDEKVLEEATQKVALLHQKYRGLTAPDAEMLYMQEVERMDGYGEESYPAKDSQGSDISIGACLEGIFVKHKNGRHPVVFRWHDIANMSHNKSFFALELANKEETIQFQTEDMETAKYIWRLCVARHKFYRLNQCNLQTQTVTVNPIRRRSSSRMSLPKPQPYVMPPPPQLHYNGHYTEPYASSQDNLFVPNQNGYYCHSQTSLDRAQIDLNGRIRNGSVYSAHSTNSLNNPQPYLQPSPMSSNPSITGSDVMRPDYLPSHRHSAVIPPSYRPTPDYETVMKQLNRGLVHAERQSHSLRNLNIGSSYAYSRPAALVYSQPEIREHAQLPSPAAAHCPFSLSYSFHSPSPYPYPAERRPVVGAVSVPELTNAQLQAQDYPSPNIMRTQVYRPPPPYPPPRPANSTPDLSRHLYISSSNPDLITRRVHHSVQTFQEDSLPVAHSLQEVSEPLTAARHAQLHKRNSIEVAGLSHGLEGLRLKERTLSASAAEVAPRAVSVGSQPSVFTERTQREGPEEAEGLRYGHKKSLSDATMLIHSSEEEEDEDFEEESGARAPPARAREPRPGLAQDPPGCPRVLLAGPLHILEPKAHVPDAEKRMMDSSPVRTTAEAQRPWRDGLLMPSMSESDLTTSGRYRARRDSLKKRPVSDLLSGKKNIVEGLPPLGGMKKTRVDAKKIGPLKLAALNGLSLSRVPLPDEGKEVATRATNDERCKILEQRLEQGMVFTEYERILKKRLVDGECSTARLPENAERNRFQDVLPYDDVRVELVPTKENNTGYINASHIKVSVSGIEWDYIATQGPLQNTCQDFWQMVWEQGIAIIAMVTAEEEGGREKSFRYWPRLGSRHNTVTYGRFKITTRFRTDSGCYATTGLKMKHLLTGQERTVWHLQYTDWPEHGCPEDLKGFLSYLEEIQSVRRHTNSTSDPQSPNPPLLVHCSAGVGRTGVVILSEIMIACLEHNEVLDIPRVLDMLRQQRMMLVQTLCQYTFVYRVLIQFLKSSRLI
Described as above.

The target in another assay is T2, Flag-DUSP26 (human) (UniProt Q9BV47).
T2 sequence: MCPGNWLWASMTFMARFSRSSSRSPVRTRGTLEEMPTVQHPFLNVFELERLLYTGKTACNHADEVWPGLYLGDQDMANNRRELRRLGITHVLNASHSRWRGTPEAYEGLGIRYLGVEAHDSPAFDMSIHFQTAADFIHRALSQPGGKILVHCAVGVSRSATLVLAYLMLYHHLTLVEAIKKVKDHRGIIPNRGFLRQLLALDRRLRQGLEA
The experiment in a line: co-IP; H1299 transfected with HA-SCRIB, Flag-DUSP26 or both; immunoprecipitation with anti-Flag or with anti-HA; detection with anti-SCRIB or anti-DUSP26.

In the case of HA-DLC1 (from UniProt P63167 1-89), the binding entry with Flag-PPP2CA (human) and in the assay with Flag-PTPN21 (human) was “binds” each time.

In the case of HA-SCRIB (from UniProt Q14160 1-1655), the binding entry with Flag-DUSP26 (human) was “binds”.
